Measurements from US20080015137A1.
No constants are given. Whether binding was seen depends on the method and setting. In cells and extracts the contact can be indirect. Some results given as binding are weak or reduced against the parent protein; the word gives no strength.

Protein sequences, listed by entry. Tags and fused reporters are not part of them. Residues count along the entry.
UniProt P49761: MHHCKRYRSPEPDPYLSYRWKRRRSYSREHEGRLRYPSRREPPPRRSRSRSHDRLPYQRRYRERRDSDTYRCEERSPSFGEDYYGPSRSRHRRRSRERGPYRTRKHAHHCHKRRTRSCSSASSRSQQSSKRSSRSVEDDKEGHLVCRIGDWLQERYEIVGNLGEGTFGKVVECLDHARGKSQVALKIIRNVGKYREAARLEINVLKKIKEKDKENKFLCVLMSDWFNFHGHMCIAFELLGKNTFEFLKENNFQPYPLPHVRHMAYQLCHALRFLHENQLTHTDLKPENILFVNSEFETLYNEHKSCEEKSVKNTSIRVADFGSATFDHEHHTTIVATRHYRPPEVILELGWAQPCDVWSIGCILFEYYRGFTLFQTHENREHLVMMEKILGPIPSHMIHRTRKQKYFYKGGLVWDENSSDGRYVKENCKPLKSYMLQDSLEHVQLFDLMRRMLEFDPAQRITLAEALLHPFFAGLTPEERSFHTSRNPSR
UniProt O94992, residues 140-170: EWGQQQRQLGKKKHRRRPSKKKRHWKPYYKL
UniProt Q07666, residues 410-443: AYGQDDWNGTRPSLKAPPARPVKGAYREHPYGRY
UniProt P67809, residues 171-207: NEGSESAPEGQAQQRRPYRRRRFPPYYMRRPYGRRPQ
UniProt O95416: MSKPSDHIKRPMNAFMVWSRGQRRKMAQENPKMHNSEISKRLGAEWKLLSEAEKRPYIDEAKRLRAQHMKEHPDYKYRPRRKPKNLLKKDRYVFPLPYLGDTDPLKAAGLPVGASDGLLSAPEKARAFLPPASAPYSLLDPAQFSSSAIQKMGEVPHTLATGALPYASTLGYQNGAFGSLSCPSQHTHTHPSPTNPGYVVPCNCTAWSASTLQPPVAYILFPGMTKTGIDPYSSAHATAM

How the values were obtained:
[1] = target: Karyopherin beta2 (Kapβ2), full length, wild type (human) (UniProt Q92973); test: GST pull-down (FIG. 6E)
[2] = target: Karyopherin beta2 (Kapβ2), full length, wild type (human) (UniProt Q92973); test: GST pull-down, Coomassie Blue (FIG. 6C)
Kapβ2 W460A/W730A = target: T1, Kapβ2 W460A/W730A; test: pull-down: Kapβ2 mutant added to immobilized GST-NLS, SDS-PAGE, stained gel
T1 sequence: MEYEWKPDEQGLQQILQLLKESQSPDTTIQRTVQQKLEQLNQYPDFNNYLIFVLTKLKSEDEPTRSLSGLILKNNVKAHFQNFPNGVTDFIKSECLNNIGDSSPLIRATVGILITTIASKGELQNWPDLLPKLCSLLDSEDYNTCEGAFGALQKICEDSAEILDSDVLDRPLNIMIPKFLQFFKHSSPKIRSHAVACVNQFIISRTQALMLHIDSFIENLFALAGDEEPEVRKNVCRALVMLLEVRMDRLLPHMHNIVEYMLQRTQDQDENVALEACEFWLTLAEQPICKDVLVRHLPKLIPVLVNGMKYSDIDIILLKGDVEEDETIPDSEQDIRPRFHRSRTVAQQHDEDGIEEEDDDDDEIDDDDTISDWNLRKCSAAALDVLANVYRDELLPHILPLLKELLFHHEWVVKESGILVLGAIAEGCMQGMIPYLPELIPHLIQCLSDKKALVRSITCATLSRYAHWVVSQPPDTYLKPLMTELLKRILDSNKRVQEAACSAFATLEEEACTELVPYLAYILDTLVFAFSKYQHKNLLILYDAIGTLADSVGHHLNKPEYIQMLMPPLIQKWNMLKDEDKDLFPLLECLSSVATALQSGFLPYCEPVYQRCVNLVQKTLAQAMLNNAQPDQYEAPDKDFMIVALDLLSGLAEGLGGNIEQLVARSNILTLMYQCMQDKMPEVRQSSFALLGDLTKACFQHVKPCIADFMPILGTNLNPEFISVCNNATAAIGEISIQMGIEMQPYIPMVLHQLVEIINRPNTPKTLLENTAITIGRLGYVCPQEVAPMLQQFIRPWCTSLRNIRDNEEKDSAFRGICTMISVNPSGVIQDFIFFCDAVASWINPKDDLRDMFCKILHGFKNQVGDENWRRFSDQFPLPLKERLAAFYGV

Substance | binding [1] | binding [2] | other results
GST-Clk3, full length (from UniProt P49761 1-490) | binds |  | 
GST-NLS of HMBA-inducible protein (from UniProt O94992 140-170) |  | binds | 
GST-NLS of SAM68 (from UniProt Q07666 410-443) |  | binds | 
GST-NLS of Y-box binding protein 1 (YBP1) (from UniProt P67809 171-207) |  | binds | 
GST-Sox14, full length (from UniProt O95416 1-240) | binds |  | 
GST-hnRNP A1-NLS (GST-fusion of hnRNP A1 residues 257-305) (from UniProt P09651 257-305) |  |  | binding (Kapβ2 W460A/W730A): binds
